SMILES strings stand for the structures.

Here are results for 2 molecules from patent publication US10301520B2, “Compositions of hydrochlorofluoroolefins” (Arkema Inc., priority 2008, dated 2019).

Series [1] in a line: Material compatibility with elastomer, linear swelling. Particulars: EPDM; boiling point of E-1233zd, more than 72 hours.
Test in series [2]: as above
Particulars: Natural Rubber; boiling point of E-1233zd, more than 72 hours.

Test in series [3]: as above
Particulars: Silicone Rubber; boiling point of E-1233zd, more than 72 hours.

With `FC(F)(F)/C=C/Cl` [E-1233zd, 1-chloro-3,3,3-trifluoropropene], the “Linear Swell” value in series [1] is 5.0%; in series [2] it was 10.0%; in series [3], 23.0%.

As to `FC(F)(Cl)C(F)(Cl)Cl` [CFC 113], the “Linear Swell” value in series [1] stood at 7.9%; in series [2] it was 4.9%; in series [3], 36.6%.
